Several values for one entry are separate records, joined by “and”; a condition that tells them apart may be missing. Equal values may be shown once.
Molecular target: α-subunit of NaV1.2 neuronal sodium channels (Rattus norvegicus, UniProt P04775)
Assay: cell-based
Procedure: Stably transfected HEK 293 cell lines expressing the α-subunit of NaV1.2 neuronal sodium channels from a rat were used. The expression vector pRc/CMV (Invitrogen, San Diego, USA) was used for mammalian transfection. Transfection was performed using calcium phosphate precipitation. Permanent expression was achieved by selection for resistance to the aminoglycoside antibiotic geneticin G418 (Life Technology, Eggenstein, Germany).
The stock solution was then dissolved directly in bath solution. The bath solution contained [mM] NaCl 140, MgCl2 1.0, KCl 4.0, CaCl2 2.0, Hepes 5.0, dextrose 5.0. Patch electrodes contained [mM] CsCl2 130, MgCl2 2.0, EGTA 5.0, Hepes 10. All solutions were adjusted to 290 mosm 1^-1 by the addition of mannitol and to pH 7.4 by the addition ofCsOH.
Standard whole-cell voltage-clamp experiments were performed at 20°C. Each experiment consisted of test recordings with the drug present at only one concentration, and of drug-free control recordings before and after the test. Each cell was exposed to one test concentration only. At least three or five independent experiments were performed at each concentration depending on the active being tested.
For data acquisition and further analysis, a EPC9 digitally-controlled amplifier was used in combination with Pulse and Pulse Fit software (HEKA Electronics, Lambrecht, Germany). The EPC9 provides automatic subtraction of capacitive and leakage currents by means of a prepulse protocol. The data were filtered at 10 kHz and digitized at 20 µs per point. The input resistance of the patch pipettes was 2.0-3.5 MΩ and the capacitances of the cells were 9-15 pF; the residual series resistance (after 50% compensation) was 1.2-2.5 MΩ. Experiments with a rise in series resistance were rejected. To minimize time-dependent shifts in the voltage-dependence of steady-state inactivation, all test experiments were performed within 5 min of patch rupture.
Drug effects on the peak current amplitude were assessed at a hyperpolarized membrane potentials (-100 mV and -150mV), at a holding potential close to the normal resting potential in physiological conditions (-70 mV), and, additionally, at -100 mV in the presence of a fraction of slow inactivated channels. Slow inactivation was induced by long (2.5 s) prepulses to -90, -70, -50, -30 and -10 mV, followed by a short hyperpolarization to allow recovery from fast-inactivation. In our protocol the recovery interval was prolonged to 100 ms (instead of 10 ms originally described) in order to allow sufficient time not only for drug-free, but also for all drug-bound states to recover from fast inactivation. […]

Sequences of proteins named here, by UniProt entry; tags and fusion partners are left off.
UniProt P04775, whole entry: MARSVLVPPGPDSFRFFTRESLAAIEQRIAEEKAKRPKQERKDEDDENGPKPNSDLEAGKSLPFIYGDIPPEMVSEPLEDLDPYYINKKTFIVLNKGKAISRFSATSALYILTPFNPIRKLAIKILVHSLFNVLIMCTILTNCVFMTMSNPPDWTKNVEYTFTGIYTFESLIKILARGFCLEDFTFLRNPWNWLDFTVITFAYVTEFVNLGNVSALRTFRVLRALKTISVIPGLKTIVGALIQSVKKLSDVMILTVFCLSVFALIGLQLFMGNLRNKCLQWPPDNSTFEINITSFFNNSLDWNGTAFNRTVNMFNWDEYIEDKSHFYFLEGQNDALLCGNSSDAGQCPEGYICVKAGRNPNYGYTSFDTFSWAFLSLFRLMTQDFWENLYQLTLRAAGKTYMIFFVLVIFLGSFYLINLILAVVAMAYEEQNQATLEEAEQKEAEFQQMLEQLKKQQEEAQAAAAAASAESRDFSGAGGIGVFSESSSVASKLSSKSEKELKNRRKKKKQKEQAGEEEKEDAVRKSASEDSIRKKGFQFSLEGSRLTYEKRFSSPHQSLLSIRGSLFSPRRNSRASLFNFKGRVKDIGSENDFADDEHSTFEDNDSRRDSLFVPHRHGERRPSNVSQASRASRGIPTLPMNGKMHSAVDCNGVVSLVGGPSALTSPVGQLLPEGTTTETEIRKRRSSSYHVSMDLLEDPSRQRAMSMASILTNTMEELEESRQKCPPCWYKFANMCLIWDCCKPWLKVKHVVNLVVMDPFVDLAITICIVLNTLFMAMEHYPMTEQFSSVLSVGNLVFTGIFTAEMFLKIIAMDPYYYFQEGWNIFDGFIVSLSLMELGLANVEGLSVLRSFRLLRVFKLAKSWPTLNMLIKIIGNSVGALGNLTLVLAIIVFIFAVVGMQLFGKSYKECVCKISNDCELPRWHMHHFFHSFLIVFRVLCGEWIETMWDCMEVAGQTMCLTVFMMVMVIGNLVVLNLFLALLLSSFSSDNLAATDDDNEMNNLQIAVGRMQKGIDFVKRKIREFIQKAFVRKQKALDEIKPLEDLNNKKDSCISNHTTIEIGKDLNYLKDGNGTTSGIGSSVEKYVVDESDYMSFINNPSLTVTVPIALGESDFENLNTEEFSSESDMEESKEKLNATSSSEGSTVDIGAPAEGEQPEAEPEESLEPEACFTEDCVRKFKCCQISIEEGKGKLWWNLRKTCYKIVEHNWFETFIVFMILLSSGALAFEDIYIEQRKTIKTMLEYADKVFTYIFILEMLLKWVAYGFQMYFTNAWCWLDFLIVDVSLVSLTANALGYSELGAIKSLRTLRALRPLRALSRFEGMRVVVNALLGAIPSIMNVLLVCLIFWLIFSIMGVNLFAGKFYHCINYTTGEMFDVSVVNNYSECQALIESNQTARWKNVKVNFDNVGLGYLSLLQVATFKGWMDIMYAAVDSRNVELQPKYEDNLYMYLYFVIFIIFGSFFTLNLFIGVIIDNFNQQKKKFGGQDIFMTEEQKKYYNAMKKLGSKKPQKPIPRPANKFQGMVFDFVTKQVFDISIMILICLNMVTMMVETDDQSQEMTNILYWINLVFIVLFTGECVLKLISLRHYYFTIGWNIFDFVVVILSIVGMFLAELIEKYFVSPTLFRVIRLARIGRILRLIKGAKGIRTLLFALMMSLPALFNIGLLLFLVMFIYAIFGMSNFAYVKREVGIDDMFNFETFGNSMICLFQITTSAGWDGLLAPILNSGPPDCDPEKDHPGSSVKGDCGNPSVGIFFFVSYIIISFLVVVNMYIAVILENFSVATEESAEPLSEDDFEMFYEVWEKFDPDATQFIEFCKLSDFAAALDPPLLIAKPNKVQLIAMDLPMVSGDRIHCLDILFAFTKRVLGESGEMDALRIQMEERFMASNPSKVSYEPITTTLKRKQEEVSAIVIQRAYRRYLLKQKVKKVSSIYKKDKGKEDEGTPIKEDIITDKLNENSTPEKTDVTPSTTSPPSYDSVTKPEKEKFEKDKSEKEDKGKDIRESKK

## CCCCCCCCCCCCCCCC[n+]1ccccc1 [CPC, cetyl pyridinium chloride]
-70 mV holding potential
  currents during wash-out, % of control current: 81 ± 5%
-100 mV holding potential
  currents during wash-out, % of control current: 78 ± 5%
-150 mV holding potential
  currents during wash-out, % of control current: 66 ± 7%
ECR50, half maximum blocking concentration, resting channels, fit to concentration-response plots at -150 mV holding potential, HEK 293, 20°C
  IC50: ~300 nM and 220 nM and 200 nM

Reference: EP2570123A1, “Use of 2,4-dichlorobenzyl alcohol having an anaesthetic effect” (Reckitt Benckiser Healthcare (UK) Limited, priority 2007, dated 2009)
